Test results: patent publication US20070185028A1, “Compositions and methods for treatment of protein misfolding and protein aggregation diseases” (priority 2004, published 2007)
Several values for one entry are separate records, joined by “and”; a condition that tells them apart may be missing. Equal entries are not always repeated. Some of these results come from one statement about several compounds together. Some compounds share one range, which may span the group rather than tell each member.

Target: T1, Aβ1-42 (Homo sapiens, UniProt P05067)
T1 construct: Aβ1-42 (American Peptide); purchased American Peptide
Test: Aβ1-42 fibril formation ThT fluorescence assay
Assay type: biochemical
Conditions: for decrease in ThT fluorescence of Aβ1-42: 30 μM Aβ1-42, 48 hrs; for inhibition of Aβ fibrillation: at higher concentrations
Protocol: The effect of five synthesized αB crystallin peptides STSLSPFYLRPPSFLRAP (ST), DRFSVNLDVKHFS (DR), HGKHEERQDE (HG), LTITSSLSSDGV (LT), and ERTIPITRE (ER) on Aβ1-42 fibrillation was measured using the ThT fluorescence assay (FIG. 1). The formation and inhibition of Aβ1-42 fibrils was qualitatively verified by fluorescence and bright-field microscopy. The concentration and stoichometry of the peptides was varied relative to Aβ1-42 to establish a concentration curve. In addition, the effect of two known inhibitors of Aβ1-42 fibrillation (APS and NAP) and a control neuropeptide (AT1) with no fibril inhibition activity was measured and compared to the effect of the αB crystallin peptides on Aβ1-42 fibrillation. The ThT fluorescence of 30 μM Aβ1-42 alone incubated at 37° C. for 48 hrs increased from ˜350,000 to ˜450,000 RFU. […] In contrast, 6 μM DR, LT, and […] had no effect on Aβ1-42 fibril formation. […] Increasing the concentration of the DR peptide to 30 μM decreased the ThT fluorescence by approximately 50%. […] However, when the concentrations of the LT and ER peptides were increased to 150 μM, a 60-100% decrease in ThT fluorescence was measured. […] The negative control peptide AT1 had no effect on Aβ1-42 fibril formation even at a concentration as high as 300 μM.
The Thioflavin T (ThT) fluorescence of Aβ1-42 in the presence of varying concentrations of αB crystallin peptides and controls was measured. […] Addition of 6 μM DR, LT, and ER had no effect on the ThT fluorescence of Aβ1-42. When the concentration of the peptides was increased to 30 μM (1:1::peptide:Aβ1-42), the αB crystallin peptides ST, DR, HG decreased the ThT fluorescence by 50-100%. At the same concentrations, APS and NAP decreased the ThT fluorescence by 30-100%. When the concentration of the peptides was increased further to 150 μM ([…]), four of the five αB crystallin peptides DR, HG, LT, and ER decreased the ThT fluorescence by 58-100%. At the same concentrations, APS and NAP decreased the fluorescence by 28-100%. […] The formation and inhibition of Aβ fibrils was verified microscopically.
Thioflavin T (ThT) Assays. The effect of the five αB crystallin peptides (ST, DR, HG, LT, and ER) on Aβ1-42 fibril formation was measured using the ThT fluorescence assay (44-47) and compared with two known inhibitors of Aβ1-42 fibril formation (Tramiprosate and NAP)(34, 36) and a negative control neuropeptide Angiotensin 1 (AT1). Thioflavin T is a fluorescent dye that has a high affinity for amyloid fibrils and becomes fluorescent (excitation λ=450 nm, emission λ=486 nm) when bound to fibrils. For the Aβ1-42 assays, peptides and APS were dissolved to 2 mM in 0.25% DMSO and diluted accordingly, while Aβ1-42 was dissolved in 20 mM Tris-Cl, pH 7.40, and 100 mM NaCl. For the 5:1::inhibitor:Aβ1-42 assay, 10 μL of 450 μM peptide or APS was mixed with 10 μL of 90 μM Aβ1-42), 7 μL 20 mM Tris-Cl, 100 mM NaCl, pH 7.4 and 3 μL of 1 mM ThT. For the 1:1::inhibitor:Aβ1-42 assay, 10 μL of 90 μM peptide or APS was mixed with 10 μL of 90 μM Aβ(1-42), 7 μL 20 mM Tris-Cl, 100 mM NaCl, pH 7.4 and 3 μL of 1 mM ThT. For the 1:5::inhibitor:Aβ1-42 assay, 10 μL of 18 μM peptide or APS was mixed with 10 μL of 90 μM Aβ(1-42), 7 μL 20 mM Tris-Cl, 100 mM NaCl, pH 7.4 and 3 μL of 1 mM ThT. ThT fluorescence in relative fluorescence units (RFU) was measured using a Perkin Elmer Victor^3 V plate reader. Assays were performed in 384-well fluorescence plates in duplicates or triplicates. Samples were incubated at 37° C. for a total of 48 hours. ThT fluorescence was measured at 0, 24, and 48 hours. The effect of the peptides and APS was calculated as percentage fibril formation relative to Aβ1-42 alone (100%) at the end of 48 hours.

Row | Sequence | decrease in ThT fluorescence of Aβ1-42 (150 μM inhibitor) | inhibition of Aβ fibrillation | decrease in ThT fluorescence of Aβ1-42 (150 μM inhibitor, listed as ER) | decrease in ThT fluorescence of Aβ1-42 (30 μM inhibitor (1:1)) | decrease in ThT fluorescence of Aβ1-42 (150 μM inhibitor, listed as LT)
1 | DRFSVNLDVKHFS | 58-100% | 60-100% |  |  | 
2 | ERTIPITRE |  | 60-100% | 60-100% and 58-100% |  | 
3 | HGKHEERQDE | 58-100% |  |  | 50-100% | 
4 | LTITSSLSSDGV |  | 60-100% |  |  | 60-100% and 58-100%
5 | STSLSPFYLRPPSFLRAP |  |  |  | 50-100% | 
